For some assays here: A negative result means that nothing was seen under these conditions. For some assays here: For at least one entry, the source does not settle the construct or the ends of the probe. For some assays here: Weaker means in comparison with the reference protein, sequence or condition of that experiment.
Tests used:
VEGF-121 (Homo sapiens) [1] = assay: filter binding; conditions: purified recombinant protein, protein details: R&D Systems, single-stranded DNA; for binding result: NB; for Kd: NB up to 100 nM
VEGF-165 (Homo sapiens) = assay: filter binding; conditions: Nap-dU at all P positions; NB up to 100 nM; purified recombinant protein; label: 5'-32P; single-stranded DNA
PDGF-BB (Homo sapiens) [2] = molecular target: PDGF-BB (Homo sapiens) (UniProt P01127); assay: structure; conditions: Bn-dU at 1,2,7,16,20; Ib-dU 8; Pe-dU 17; Th-dU 18; Heg at 5; 2'-OMe at A3,A11,A21,G24; PDB 4HQX, 2.30 A; about 20-50-fold weaker binding than SL5; purified recombinant protein; single-stranded DNA; variant of 4149-8_38
PDGF-BB (Homo sapiens) [3] = molecular target: PDGF-BB (Homo sapiens) (UniProt P01127); assay: activity in cells; conditions: Bn-dU; Nap-dU; 2'-OMe; C3; Heg; PDGFRb phosphorylation in Hs27; purified recombinant protein; protein details: R&D Systems; single-stranded DNA
PDGF-BB (Homo sapiens) [4] = molecular target: PDGF-BB (Homo sapiens) (UniProt P01127); assay: filter binding; conditions: two 4149-8_260 units head-to-tail joined by five Heg; Bn-dU, Pe-dU, Th-dU, 2'-OMe as in 4149-8_260; homodimer construct; purified recombinant protein; label: 5'-32P; single-stranded DNA; variant of 4149-8_260 (SL5)
VEGF-121 (Homo sapiens) [5] = assay: activity in cells; conditions: Bn-dU; MBn-dU; Nap-dU; 2'-OMe; C3; Heg; VEGFR2 phosphorylation in HUVEC; VEGF isoform not specified; purified recombinant protein; protein details: R&D Systems; single-stranded DNA

Chains of the proteins cited; added tags and fusions are not shown. A line that says so, or that is headed by a name, gives the form on record, which may keep a tag or linker. Residues count along the entry.
UniProt P01127, 82-190: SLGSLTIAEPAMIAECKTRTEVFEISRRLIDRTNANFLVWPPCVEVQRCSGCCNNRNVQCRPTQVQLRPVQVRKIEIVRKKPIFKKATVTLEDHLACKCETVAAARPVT
VEGF-121 (Homo sapiens), one chain, as listed by the source: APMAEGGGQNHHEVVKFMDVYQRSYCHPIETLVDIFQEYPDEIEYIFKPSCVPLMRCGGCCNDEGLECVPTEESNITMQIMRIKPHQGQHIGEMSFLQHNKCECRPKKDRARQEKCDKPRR
VEGF-165 (Homo sapiens), one chain, as listed by the source: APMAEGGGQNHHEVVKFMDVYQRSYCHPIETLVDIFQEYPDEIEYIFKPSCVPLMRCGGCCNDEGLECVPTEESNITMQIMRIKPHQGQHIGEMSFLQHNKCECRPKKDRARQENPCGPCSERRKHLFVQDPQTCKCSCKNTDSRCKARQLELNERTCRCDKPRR

“AGCCGTTAAGTGCTTTAGATTTAAATGGA [4867-31_100]”: no binding (VEGF-121 (Homo sapiens) [1]; Nap-dU at all P, C3 spacer at 8,17,20).

“AGCCGTTCAAGTGCTTGTAGATTTAAATGGA [4867-31_103]”: no binding (VEGF-121 (Homo sapiens) [1]; Nap-dU at all P).

With “AGCCGTTCAAGTGCTTGTAGGATTTAAA [4867-31_54]” the Kd (VEGF-121 (Homo sapiens) [1]; Nap-dU at all P) was > 100 nM.

“AGCCGTTCAAGTGCTTTAGGATTTAAATGGA [4867-31_102]”: no binding (VEGF-121 (Homo sapiens) [1]; Nap-dU at all P positions, label: 5'-32P, variant of 4867-31_43).

With “CAGCCGTTCAAGTGCTTGTAGGATTTAAA [4867-31_47]” the Kd (VEGF-165 (Homo sapiens)) was > 100 nM and the Kd (VEGF-121 (Homo sapiens) [1]; Nap-dU at all P) was > 100 nM.

With “CAGCCGTTCAAGTGCTTGTAGGATTTAAAT [4867-31_46]” the Kd (VEGF-121 (Homo sapiens) [1]; Nap-dU at all P positions, label: 5'-32P) was > 100 nM.

“TTACGTTACACGCGTTTATAGCG [4149-8_255 (SL4)]”: binds more weakly (PDGF-BB (Homo sapiens) [2]).

“TTACGTTACACGCGTTTATAGCGCCGTTCAAGTGCTTTAGATTTAAATG [4149-8_320]” showed an IC50 (PDGF-BB (Homo sapiens) [3]) of 1 nM.

Work on “TTACGTTACACGCGTTTATAGCGTTACGTTACACGCGTTTATAGCG [4149-8_337]” yielded a Kd (PDGF-BB (Homo sapiens) [4]) of 0.00379 nM.

With “TTACGTTACCGCGTTTATAGCGCCGTTCAAGTGCTTGTAGGATTTAAATGG [4149-8_401]” the IC50 (VEGF-121 (Homo sapiens) [5]) was 0.7 nM.

— patent US20170260531
